{"source": "patent US20250009886A1", "about": "“COMPOSITIONS FOR SMALL MOLECULE THERAPEUTIC AGENT COMPOUNDS” (Delpor, Inc., priority 2016, published 2025)", "note": "At least one compound was matched to its structure with a doubt left.", "data": [{"smiles": "Cc1cc2c(s1)Nc1ccccc1N=C2N1CCN(C)CC1", "note": "[olanzapine]", "values": [{"measurement": "olanzapine released, total", "setting": "control devices with no acid, over the study period", "result": "< 1", "unit": "mg"}, {"measurement": "release of olanzapine (FIG. 3B, in words)", "setting": "olanzapine/organic acid molar ratio 2:1 or no acid, 15 day test period", "result": "released drug slowly"}]}]}
